Results are given in words; binding and its absence hold for the method and conditions named.
Target: recombinant full-length wild-type human TDP-43 (residues 1-414), TAMRA-labeled (human) (UniProt Q13148)
Assay: recruitment into phase-separated droplets

Sequences of proteins named here, by UniProt entry; tags and fusion partners are left off. Residues count along the entry.
UniProt Q13148: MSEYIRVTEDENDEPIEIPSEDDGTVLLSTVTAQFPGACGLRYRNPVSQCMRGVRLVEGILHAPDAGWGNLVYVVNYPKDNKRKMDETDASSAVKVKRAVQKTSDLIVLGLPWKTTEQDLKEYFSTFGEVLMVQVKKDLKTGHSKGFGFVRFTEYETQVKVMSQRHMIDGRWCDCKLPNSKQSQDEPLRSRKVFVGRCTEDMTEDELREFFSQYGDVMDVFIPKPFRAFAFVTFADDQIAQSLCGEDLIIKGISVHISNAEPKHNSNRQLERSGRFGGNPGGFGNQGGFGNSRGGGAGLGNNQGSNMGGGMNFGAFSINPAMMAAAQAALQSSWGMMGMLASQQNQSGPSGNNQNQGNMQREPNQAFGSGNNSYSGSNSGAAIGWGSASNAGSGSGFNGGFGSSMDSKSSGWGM
UniProt P02769, residues 25-607: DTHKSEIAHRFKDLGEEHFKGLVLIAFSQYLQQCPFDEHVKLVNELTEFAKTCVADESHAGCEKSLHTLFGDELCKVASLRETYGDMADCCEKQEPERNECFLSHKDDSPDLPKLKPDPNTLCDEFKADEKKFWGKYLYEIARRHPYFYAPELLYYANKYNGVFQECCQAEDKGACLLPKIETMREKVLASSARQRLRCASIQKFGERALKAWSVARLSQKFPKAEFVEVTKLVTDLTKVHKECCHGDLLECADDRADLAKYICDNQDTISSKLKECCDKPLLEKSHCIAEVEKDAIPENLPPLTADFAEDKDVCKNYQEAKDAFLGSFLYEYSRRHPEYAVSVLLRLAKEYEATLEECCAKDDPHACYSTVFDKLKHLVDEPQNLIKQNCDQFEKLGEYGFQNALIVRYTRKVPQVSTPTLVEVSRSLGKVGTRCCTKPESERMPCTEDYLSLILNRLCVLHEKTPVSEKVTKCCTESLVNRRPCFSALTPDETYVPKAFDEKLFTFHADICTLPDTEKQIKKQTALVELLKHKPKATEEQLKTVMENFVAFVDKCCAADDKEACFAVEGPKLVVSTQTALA

Substance: bovine serum albumin (BSA), FITC-labeled (from UniProt P02769 25-607)
- binding: no binding

Reference: doi:10.1101/2024.03.16.585334
